The data set can be described thus: general procedure: solution-phase peptide synthesis; EDC·HCl / 1-Hydroxybenzotriazole.

“(10S,13S,16R)-16-amino-N—((S)-1-amino-1-oxo-3-phenylpropan-2-yl)-13-(4-hydroxy-2,6-dimethylbenzyl)-2-imino-4,12,15-trioxo-1,3,5,11,14-pentaazacyclononadecane-10-carboxamide”: the “final HPLC purity” value was 97.0% (cyclisation step, run 1) and 97.6% (cyclisation step, run 2). Further, where the note is “cyclisation step, overall”, the cyclisation yield result is reported as “overall yield 6.5%”.
As for D-(N2-Boc)-Arg-DMT-Lys-Phe-NH2, for the setting “late stage modification step”, the step yield is 66%.

The values are drawn from US20230227499A1 (Stealth Biotherapeutics Inc., priority 2020, published 2023).
